The test deals with nuclear factor kappa B (NF-κB)/RelA (mouse (endogenous in primary murine hepatocytes)) (UniProt Q04207). The test can be described thus: Re-ChIP (sequential chromatin immunoprecipitation); primary murine hepatocytes treated with HGF (20 ng/ml), harvested at indicated time points; Re-ChIP with indicated antibodies; proximal eotaxin promoter amplified.

The chains behind the UniProt entries cited, without tags or fusion partners.
UniProt Q04207: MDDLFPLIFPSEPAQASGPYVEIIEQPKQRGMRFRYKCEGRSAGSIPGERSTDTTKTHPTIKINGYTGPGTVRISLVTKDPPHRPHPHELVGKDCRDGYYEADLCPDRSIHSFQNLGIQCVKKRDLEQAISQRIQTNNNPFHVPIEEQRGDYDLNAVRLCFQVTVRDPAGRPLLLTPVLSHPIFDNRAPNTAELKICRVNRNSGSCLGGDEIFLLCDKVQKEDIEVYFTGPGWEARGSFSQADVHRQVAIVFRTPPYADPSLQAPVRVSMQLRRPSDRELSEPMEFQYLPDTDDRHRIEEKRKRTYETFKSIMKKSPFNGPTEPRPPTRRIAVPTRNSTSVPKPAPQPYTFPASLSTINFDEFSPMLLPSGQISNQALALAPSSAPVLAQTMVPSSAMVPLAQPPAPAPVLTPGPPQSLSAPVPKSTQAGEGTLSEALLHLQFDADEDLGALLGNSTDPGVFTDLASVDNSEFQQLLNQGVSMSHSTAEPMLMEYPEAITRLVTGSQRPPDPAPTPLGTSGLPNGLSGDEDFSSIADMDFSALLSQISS
UniProt Q3TKT4: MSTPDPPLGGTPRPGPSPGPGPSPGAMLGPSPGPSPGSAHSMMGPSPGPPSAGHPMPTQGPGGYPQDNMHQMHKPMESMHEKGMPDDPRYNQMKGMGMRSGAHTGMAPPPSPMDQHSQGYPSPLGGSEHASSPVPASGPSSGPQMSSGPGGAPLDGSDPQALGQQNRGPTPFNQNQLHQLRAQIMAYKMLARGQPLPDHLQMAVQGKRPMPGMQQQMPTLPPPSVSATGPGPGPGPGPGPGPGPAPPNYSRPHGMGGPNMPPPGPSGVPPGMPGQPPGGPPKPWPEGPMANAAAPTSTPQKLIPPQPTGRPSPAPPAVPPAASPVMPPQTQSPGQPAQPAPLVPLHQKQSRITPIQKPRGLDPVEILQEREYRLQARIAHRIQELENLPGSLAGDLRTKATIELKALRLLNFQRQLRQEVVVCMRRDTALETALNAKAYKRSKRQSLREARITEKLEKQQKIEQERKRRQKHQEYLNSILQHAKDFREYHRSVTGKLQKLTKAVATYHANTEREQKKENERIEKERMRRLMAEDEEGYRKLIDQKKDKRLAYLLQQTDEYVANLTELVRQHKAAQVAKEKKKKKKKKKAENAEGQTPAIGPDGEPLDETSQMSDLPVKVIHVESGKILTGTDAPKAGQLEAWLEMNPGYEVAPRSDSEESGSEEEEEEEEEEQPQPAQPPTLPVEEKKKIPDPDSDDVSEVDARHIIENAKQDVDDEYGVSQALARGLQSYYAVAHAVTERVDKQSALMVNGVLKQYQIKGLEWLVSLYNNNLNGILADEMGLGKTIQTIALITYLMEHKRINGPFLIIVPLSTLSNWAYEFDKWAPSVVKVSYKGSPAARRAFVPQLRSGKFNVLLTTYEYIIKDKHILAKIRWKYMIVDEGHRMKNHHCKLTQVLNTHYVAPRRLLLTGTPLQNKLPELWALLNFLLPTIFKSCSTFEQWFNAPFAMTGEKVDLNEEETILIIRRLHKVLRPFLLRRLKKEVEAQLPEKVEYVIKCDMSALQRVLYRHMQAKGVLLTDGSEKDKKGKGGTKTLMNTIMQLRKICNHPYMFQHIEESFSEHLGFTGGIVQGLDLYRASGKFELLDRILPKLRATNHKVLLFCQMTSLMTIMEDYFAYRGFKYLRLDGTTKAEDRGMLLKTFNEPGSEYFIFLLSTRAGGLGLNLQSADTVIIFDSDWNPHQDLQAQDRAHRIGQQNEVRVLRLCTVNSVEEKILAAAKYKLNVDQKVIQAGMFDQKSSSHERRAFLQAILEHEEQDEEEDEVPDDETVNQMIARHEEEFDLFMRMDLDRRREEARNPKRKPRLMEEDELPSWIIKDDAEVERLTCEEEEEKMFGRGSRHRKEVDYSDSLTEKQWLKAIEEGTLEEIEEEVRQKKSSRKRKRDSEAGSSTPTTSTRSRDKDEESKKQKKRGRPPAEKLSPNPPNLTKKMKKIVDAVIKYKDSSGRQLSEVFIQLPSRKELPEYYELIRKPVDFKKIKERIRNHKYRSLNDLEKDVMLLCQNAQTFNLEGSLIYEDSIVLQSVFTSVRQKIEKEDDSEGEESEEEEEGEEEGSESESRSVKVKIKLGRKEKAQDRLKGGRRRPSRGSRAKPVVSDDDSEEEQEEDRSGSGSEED

These are yes or no findings as the source states them, for the method shown. Some results given as binding are weak or reduced against the parent protein; the word gives no strength.

As for “Brahma-related gene 1 (Brg1) (from UniProt Q3TKT4 1-1613)”, the binding result is listed as “binds”.

For the origin of these results see publication PMC9132924.
